From the supplement of paper PMC10338343
± gives the standard deviation. The list shows a part of the results. Many entries were measured with a wide error.

Tested on: EfPiwi piRISC loaded with L1MC piRNA (26 nt)
Test: pre-steady-state target cleavage rate (min^-1); guide: L1MC piRNA 5'p-UAACUAAAUACUAUGCAAGCUGUAGG; MIWI and MILI are mouse PIWI proteins and EfPiwi is from a freshwater sponge; tags in brackets are library labels; higher = faster piRNA-guided slicing of the target
Conditions: auxiliary factor: 500 nM Ephydatia muelleri Gtsf1
How it was run: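 In this Cleave-'n-Seq assay, uncleaved targets were sequenced and normalised to depth and to weakly complementary targets. They came from a transcribed, DNA-blocked target RNA library […] mixed with 1 nM active affinity-purified piRISC carrying one synthetic guide, with or without 500 nM GTSF1 partner protein, in HEPES–potassium acetate buffer at 33 °C for 0–8 or 0–960 min. After three trials were pooled and k3 was capped at 0.0001 min^-1, the pre-steady-state cleavage rate was obtained from a burst-and-steady-state fit.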

| Sequence | pre-steady-state target cleavage rate |
| --- | --- |
| UCCUGGAUCAGCUUGCAUAGUAUUUAGUUA [g2:g22:cont:t1A] | 0.0886 ± 0.017 |
| UCCUGGAUGUCGAAGCAAAGUUUUUAGUUA | 0.000347 ± 0.011 |
| UCCUGCUACAGCUUGCUUAGUAUAUAGUUA | 0.0125 ± 0.0047 |
| UCCUGGAUGUGCUUCCAUAGUAUUUAGAUA | 0.00187 ± 0.0033 |
| UCCUCCUACAGCUUGGUUAGUAUUUAGUAA | 0.00533 ± 0.0032 |
| UCCUGGAUGAGCUUGCUAGUAUUUAGUUA | 0.000954 ± 0.0061 |
| UCCUGGAUGUGCUUGCAUAGAUUUUAGAAA | 0.000738 ± 0.0042 |
| UCCUGGAUGAGCUUGGUAAGUAUUUAGUUA | 0.00205 ± 0.0059 |
| UCCUGCUACAGCAUGCAUAGUAUUUAGUAA | 0.00673 ± 0.0029 |
| UCCUGGAUGAGCUUGCAUAGUUAAUACAAA | 0.00036 ± 0.011 |
| UCCUGGAUGUCGAACCAUAGUAUUUAGAUUA | 0.000352 ± 0.019 |
| UCCUGGAUGUGCUUGCAUAGGUAUUUAGUUA | 0.000803 ± 0.0063 |

Copied from the entries so far for reference:

| Sequence | pre-steady-state target cleavage rate |
| --- | --- |
| UCCUGGAUGUCGAAGCAAAGUUUUUAGUUA | 0.000347 ± 0.011 |
| UCCUGCUACAGCUUGCUUAGUAUAUAGUUA | 0.0125 ± 0.0047 |

Same assay, conditions: auxiliary factor: none (no Gtsf1)

| Sequence | pre-steady-state target cleavage rate |
| --- | --- |
| UCCUGGAACAGCUUGCAAAGUAUAUAGUUA | 0.000278 ± 0.035 |
| UCCUGGAUGUGCUUGCAUACAUUUUAGUUA | 0.000233 ± 0.034 |
| UCCUGGAUCAGCUUGCAUAGUAAUUAGAUA | 0.000679 ± 0.011 |
| UCCUGGAUGUGCUUGCAAUCUAUUUAGAAA | 0.000799 ± 0.0097 |
